Source: the supplement of paper PMC12067093, “Discovery and optimisation of a covalent ligand for TRIM25 and its application to targeted protein ubiquitination” (Chemical Science, 2025)
Some of the results follow.

Compound: CC1Cc2ccccc2N1C(=O)C1CCCN(C1)C(=O)CCl (mixture of isomers) [TRIM25 ligand 11 (diastereomer mixture)]
Assay: probe-labelled cysteine peptide fold change vs DMSO (competition) (log2 fold change); higher = less target engagement (more negative = stronger competition)
Conditions: THP-1, incubation time: 4 h
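Note: competitive chemoproteomic profiling in live THP-1 cells with an iodoacetamide desthiobiotin (IA-DTB) probe, comparing probe-labelled peptide intensities in compound-treated cells against DMSO-treated controls.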

Target | probe-labelled cysteine peptide fold change (10 µM) | probe-labelled cysteine peptide fold change (50 µM)
ELP1_O95163_836_YCLSILTSHVK (UniProt O95163) | -0.0405 | -0.0807
ELMOD2_Q8IZ81_285_GLLLDCNVALTLK (UniProt Q8IZ81) | 0.285 | 0.319
EPRS_P07814_337_GSQFGQSCCLR (UniProt P07814) | 0.0735 | 0.124
EIF5_P55010_122_QTIGNSCK (UniProt P55010) | 0.0596 | 0.119
ELOF1_P60002_29_MTGTLETQFTCPFCNHEK (UniProt P60002) | -0.299 | -0.257
EPRS_P07814_1076_KLGVENCYFPMFVSQSALEK (UniProt P07814) | 0.235 | 0.111
EPHX1_P07099_182_NHGLSDEHVFEVICPSIPGYGFSEASSK (UniProt P07099) | 0.0234 | 0.0755
ELP2_Q6IA86_572_LYGHGYEIFCVTCNSSK (UniProt Q6IA86) | 0.0517 | 0.205
EPS15L1_Q9UBC2_82_LVACAQSGHEVTLSNLNLSMPPPK (UniProt Q9UBC2) | 0.426 | 0.39
ELP1_O95163_820_IDLVCDAMR (UniProt O95163) | 0.425 | 0.197
EPRS_P07814_1076_LGVENCYFPMFVSQSALEK (UniProt P07814) | 0.00656 | -0.196
EIF3D_O15371_327_NLAMEATYINHNFSQQCLR (UniProt O15371) | -0.201 | -0.044
EPRS_P07814_660_HEELMLGDPCLK (UniProt P07814) | -0.0463 | -0.186
EP300_Q09472_1275_MHQICVLHHEIIWPAGFVCDGCLK (UniProt Q09472) | -0.0791 | 0.149
EIF3B_P55884_384_FSHQGVQLIDFSPCER (UniProt P55884) | -0.039 | 0.0236
EIF3L_Q9Y262_417_GDPQVYEELFSYSCPK (UniProt Q9Y262) | -0.255 | -0.0691
EIF3M_Q7L2H7_175_LLYEALVDCKK (UniProt Q7L2H7) | 0.102 | 0.345
ELP3_Q9H9T3_456_CSEETFR (UniProt Q9H9T3) | 0.298 | 0.202
EIF5B_O60841_749_CPFIVALNK (UniProt O60841) | 0.184 | 0.445
EOGT_Q5NDL2_61_HIATVCR (UniProt Q5NDL2) | 0.0822 | 0.0837
ENAH_Q8N8S7_62_KIQDHQVVINCAIPK (UniProt Q8N8S7) | -0.0322 | -0.115
EIF5B_O60841_635_APIICVLGHVDTGK (UniProt O60841) | -0.115 | -0.152

Target | probe-labelled cysteine peptide fold change (10 µM) | probe-labelled cysteine peptide fold change (50 µM)
ELOC_Q15369_11_TYGGCEGPDAMYVK (UniProt Q15369) | -0.0586 | -0.117
EIF4G3_O43432_1411_LDFIESDSPCSSEALSK (UniProt O43432) | 0.109 | 0.0435
EMG1_Q92979_66_TYELLNCDK (UniProt Q92979) | -0.0851 | -0.103
EIF4G1_Q04637_662_LQGINCGPDFTPSFANLGR (UniProt Q04637) | -0.251 | -0.298
ELANE_P08246_187_SNVCTLVR (UniProt P08246) | 0.174 | 0.0578
ELL_P55199_595_CEYLHSK (UniProt P55199) | 0.0432 | 0.107
EML3_Q32P44_420_DSSCIVTSGK (UniProt Q32P44) | -0.000308 | 0.0483
EMC4_Q5J8M3_69_CWDIALGPLK (UniProt Q5J8M3) | 0.299 | 0.14
EIF3J_O75822_207_KITNSLTVLCSEK (UniProt O75822) | 0.0104 | -0.176
EIF4G3_O43432_1471_ALMTAVCK (UniProt O43432) | 0.0497 | 0.131
EPN1_Q9Y6I3_205_EEADQPPSCGPEDDAQLQLALSLSR (UniProt Q9Y6I3) | 0.47 | 0.189
EPS15L1_Q9UBC2_470_CQDETQMISSLK (UniProt Q9UBC2) | -0.0732 | -0.171
EPRS_P07814_680_RGFFICDQPYEPVSPYSCK (UniProt P07814) | -0.163 | -0.134
ELP2_Q6IA86_38_GLLAFGTSCSVVLYDPLKR (UniProt Q6IA86) | -0.0266 | 0.023
EIF4A1_P60842_131+134_VVMALGDYMGASCHACIGGTNVR (UniProt P60842) | 0.301 | 0.121
ELOVL1_Q9BW60_93_CDPVDYSNSPEALR (UniProt Q9BW60) | 0.0358 | 0.132
ELANE_P08246_151_LGNGVQCLAMGWGLLGR (UniProt P08246) | -0.0888 | -0.107
EIPR1_Q53HC9_198_WSPHHNCTQVATANDTTLR (UniProt Q53HC9) | -0.031 | -0.16
EPRS_P07814_692_RGFFICDQPYEPVSPYSCK (UniProt P07814) | 0.0432 | -0.176
EPHX2_P34913_154_MHFDFLIESCQVGMVKPEPQIYK (UniProt P34913) | -0.417 | -0.103
EPB41L2_O43491_248_VCEHLNLLEK (UniProt O43491) | 0.0945 | 0.146
ELANE_P08246_55_GGHFCGATLIAPNFVMSAAHCVANVNVR (UniProt P08246) | -0.0847 | 0.148

Target | probe-labelled cysteine peptide fold change (10 µM) | probe-labelled cysteine peptide fold change (50 µM)
ELMSAN1_Q6PJG2_442_AVSTGDCGQVLR (UniProt Q6PJG2) | -0.202 | -0.175
ELP2_Q6IA86_675_IIWSCDWSPDSK (UniProt Q6IA86) | -0.063 | 0.204
EIF5B_O60841_1158_KGQEVCVK (UniProt O60841) | 0.00815 | -0.0195
EIF3M_Q7L2H7_52_GAEISEENSEGGLHVDLAQIIEACDVCLKEDDK (UniProt Q7L2H7) | 0.0157 | 0.134
ENOSF1_Q7L5Y1_307_ALVPLGIGIATGEQCHNR (UniProt Q7L5Y1) | -0.156 | -0.317
EIF3H_O15372_177_LMEVCK (UniProt O15372) | 0.0807 | -0.024
ELAC2_Q9BQ52_421_EGPTLSVPMVQGECLLK (UniProt Q9BQ52) | -0.195 | -0.0203
EIF3J_O75822_207_ITNSLTVLCSEK (UniProt O75822) | -0.123 | -0.423
ERBIN_Q96RT1_464_AQVAFECDEDK (UniProt Q96RT1) | 0.442 | 0.102
ERAL1_O75616_425_GHVISQIAQEAGHDLMDIFLCDVDIR (UniProt O75616) | -0.0363 | -0.0198
EIF4A2_Q14240_132+135_VILALGDYMGATCHACIGGTNVR (UniProt Q14240) | -0.177 | 0.0633
EP300_Q09472_364_QCNLPHCR (UniProt Q09472) | 0.0578 | 0.0375
EPS15_P42566_782_IGTPTRPCPLPPGKR (UniProt P42566) | -0.193 | -0.265
EPS15_P42566_419_CAEEAQLISSLK (UniProt P42566) | -0.0743 | 0.0636
EIF3M_Q7L2H7_125_YTVYCSLIK (UniProt Q7L2H7) | -0.0302 | 0.306
EIF3E_P60228_250_GRDNIIDLFLYQPQYLNAIQTMCPHILR (UniProt P60228) | -0.0393 | -0.0709
EP300_Q09472_382_NVLNHMTHCQSGK (UniProt Q09472) | -0.0028 | -0.126
EML3_Q32P44_604_GDLAQGFSPVIQGHTDELWGLCTHPSQNR (UniProt Q32P44) | 0.00256 | -0.467
ENGASE_Q8NFI3_113_LEDGFNVALEPLACR (UniProt Q8NFI3) | 0.199 | 0.154
EPRS_P07814_1453_IVQIPFCGEIDCEDWIKK (UniProt P07814) | -0.301 | -0.148
EPHX2_P34913_71_GEITLSQWIPLMEENCR (UniProt P34913) | 0.049 | -0.317
EIF3G_O75821_25_CVTSELLK (UniProt O75821) | -0.00799 | -0.148

22 entries from above, reformatted.
Target	probe-labelled cysteine peptide fold change (10 µM)	probe-labelled cysteine peptide fold change (50 µM)
EPRS_P07814_337_GSQFGQSCCLR (UniProt P07814)	0.0735	0.124
EIF5_P55010_122_QTIGNSCK (UniProt P55010)	0.0596	0.119
EPHX1_P07099_182_NHGLSDEHVFEVICPSIPGYGFSEASSK (UniProt P07099)	0.0234	0.0755
ELP2_Q6IA86_572_LYGHGYEIFCVTCNSSK (UniProt Q6IA86)	0.0517	0.205
EPS15L1_Q9UBC2_82_LVACAQSGHEVTLSNLNLSMPPPK (UniProt Q9UBC2)	0.426	0.39
EPRS_P07814_660_HEELMLGDPCLK (UniProt P07814)	-0.0463	-0.186
EIF5B_O60841_635_APIICVLGHVDTGK (UniProt O60841)	-0.115	-0.152
ELOC_Q15369_11_TYGGCEGPDAMYVK (UniProt Q15369)	-0.0586	-0.117
EMG1_Q92979_66_TYELLNCDK (UniProt Q92979)	-0.0851	-0.103
ELANE_P08246_187_SNVCTLVR (UniProt P08246)	0.174	0.0578
ELL_P55199_595_CEYLHSK (UniProt P55199)	0.0432	0.107
EIF3J_O75822_207_KITNSLTVLCSEK (UniProt O75822)	0.0104	-0.176
EIF4G3_O43432_1471_ALMTAVCK (UniProt O43432)	0.0497	0.131
ELANE_P08246_151_LGNGVQCLAMGWGLLGR (UniProt P08246)	-0.0888	-0.107
EIPR1_Q53HC9_198_WSPHHNCTQVATANDTTLR (UniProt Q53HC9)	-0.031	-0.16
EPB41L2_O43491_248_VCEHLNLLEK (UniProt O43491)	0.0945	0.146
ELP2_Q6IA86_675_IIWSCDWSPDSK (UniProt Q6IA86)	-0.063	0.204
EIF3M_Q7L2H7_52_GAEISEENSEGGLHVDLAQIIEACDVCLKEDDK (UniProt Q7L2H7)	0.0157	0.134
EIF3H_O15372_177_LMEVCK (UniProt O15372)	0.0807	-0.024
ERBIN_Q96RT1_464_AQVAFECDEDK (UniProt Q96RT1)	0.442	0.102
ERAL1_O75616_425_GHVISQIAQEAGHDLMDIFLCDVDIR (UniProt O75616)	-0.0363	-0.0198
EPHX2_P34913_71_GEITLSQWIPLMEENCR (UniProt P34913)	0.049	-0.317

(list continues)

Target | probe-labelled cysteine peptide fold change (10 µM) | probe-labelled cysteine peptide fold change (50 µM)
EPB41L2_O43491_232_VTLLDGTEYSCDLEK (UniProt O43491) | -0.091 | -0.062
ELOB_Q15370_60_TLGECGFTSQTARPQAPATVGLAFR (UniProt Q15370) | -0.0882 | -0.281
EIF5_P55010_320_YLLHGLECVVAMHQAQLISK (UniProt P55010) | 0.0109 | 0.0824
EPRS_P07814_1301_VACVQVVIIPCGITNALSEEDK (UniProt P07814) | 0.0163 | -0.00686
ELOC_Q15369_74_VCMYFTYK (UniProt Q15369) | 0.00795 | 0.0702
ENO1_P06733_339_SCNCLLLK (UniProt P06733) | 0.00409 | 0.0482
ELAVL1_Q15717_13_SNGYEDHMAEDCRGDIGR (UniProt Q15717) | 0.0836 | 0.0433
EPRS_P07814_856_INEAVECLLSLK (UniProt P07814) | -0.0867 | -0.176
EPDR1_Q9UM22_88_ALIPCK (UniProt Q9UM22) | 0.0598 | 0.0572
ELAC2_Q9BQ52_640_TCDLEEFQTCLVR (UniProt Q9BQ52) | 0.0319 | -0.00113
ELOVL5_Q9NYP7_61_NKQPFSCR (UniProt Q9NYP7) | -0.143 | -0.0894
EIF4G2_P78344_282_MCSLMLSK (UniProt P78344) | 0.0537 | -0.00385
EIF3D_O15371_19_FMTPVIQDNPSGWGPCAVPEQFR (UniProt O15371) | -0.167 | -0.2
EPG5_Q9HCE0_1586_QYVNREEQTTLHLECR (UniProt Q9HCE0) | 0.148 | 0.0575
EML3_Q32P44_816_VVAVADDFCK (UniProt Q32P44) | -0.0576 | -0.0482
EIF4A3_P38919_137_GLLALGDYMNVQCHACIGGTNVGEDIRK (UniProt P38919) | 0.0579 | 0.19
EML4_Q9HC35_638_LVDEPGHCADFHPSGTVVAIGTHSGR (UniProt Q9HC35) | 0.109 | -0.0818
EMC1_Q8N766_338_TVAAVMACR (UniProt Q8N766) | 0.153 | 0.0463
ERBIN_Q96RT1_464_AQVAFECDEDKDER (UniProt Q96RT1) | -0.00324 | -0.133
